Experimental data reported in patent publication US8513227B2, “Inhibition of inflammatory cytokine production with tanshinones” (The Feinstein Institute for Medical Research, priority 2006, dated 2013).
At least one structure is not confirmed: it was looked up by name or label, or the drawing left a doubt.

Assays:
TNF = test: LPS-mediated TNF secretion in RAW 264.7 macrophages (ELISA); type: cell-based, murine; settings: FIG. 5C
Procedure: Cell culture. Murine macrophage-like RAW 264.7 cells were obtained from the American Type Culture Collection (ATCC, Rockville, Md.), and primary peritoneal macrophages were isolated from Balb/C mice (male, 7-8 weeks, 20-25 grams) at 2-3 days after intraperitoneal injection of 2 ml thioglycollate broth (4%) as previously described (Chen et al. 2004; Rendon-Mitchell et al. 2003). Murine macrophages were pre-cultured in RPMI 1640 medium (Gibco BRL, Grand Island, N.Y.) supplemented with 10% fetal bovine serum (FBS) and 2 mmol/L glutamine. Human peripheral blood mononuclear cells (HuPBMCs) were isolated from the blood of healthy donors (Long Island Blood Bank, Melville, N.Y.) by density gradient centrifugation through Ficoll (Ficoll-Paque PLUS, Pharmacia, Piscataway, N.J.), and cultured in RPMI 1640 supplemented with 10% heat-inactivated human serum/0.2 mM L-glutamine as previously described (Rendon-Mitchell et al. 2003). LPS stimulation. Adherent macrophages or monocytes were gently washed with, and cultured in, serum-free OPTI-MEM I medium two hours before stimulation with bacterial endotoxin (lipopolysaccharide, LPS, E. coli 0111:B4, Sigma-Aldrich). […] Rendon-Mitchell et al. 2003; Wang et al. 1999). TNF ELISA. The levels of TNF in the culture medium or serum were determined using commercial enzyme linked immunosorbent assay (ELISA) kits (Catalog no. MTA00, R & D Systems, Minneapolis, Minn.) with reference to standard curves of purified recombinant TNF at various dilutions as previously described (Chen et al. 2004; Rendon-Mitchell et al. 2003; Wang et al. 2006).

HMGB1 = test: LPS-induced HMGB1 release in RAW 264.7 macrophage cultures (western blot); type: cell-based, murine
Text: Cell culture. […] Rendon-Mitchell et al. 2003). Murine macrophages were pre-cultured in RPMI 1640 medium (Gibco BRL, Grand Island, N.Y.) supplemented with 10% fetal bovine serum (FBS) and 2 mmol/L glutamine. Human peripheral blood mononuclear cells (HuPBMCs) were isolated from the blood of healthy donors (Long Island Blood Bank, Melville, N.Y.) by density gradient centrifugation through Ficoll (Ficoll-Paque PLUS, Pharmacia, Piscataway, N.J.), and cultured in RPMI 1640 supplemented with 10% heat-inactivated human serum/0.2 mM L-glutamine as previously described (Rendon-Mitchell et al. 2003). LPS stimulation. Adherent macrophages or monocytes were gently washed with, and cultured in, serum-free OPTI-MEM I medium two hours before stimulation with bacterial endotoxin (lipopolysaccharide, LPS, E. coli 0111:B4, Sigma-Aldrich). […] Rendon-Mitchell et al. 2003; Wang et al. 1999). HMGB1 western blotting analysis. The levels of HMGB1 in the culture medium or serum were determined by western blotting analysis as previously described (Chen et al. 2004; Rendon-Mitchell et al. 2003; Wang et al. 1999). The relative band intensity was quantified using NIH image 1.59 software to determine HMGB1 levels with reference to standard curves generated with purified HMGB1.

Row | Structure (SMILES) | effect of RU486 on TSNIIA-SS-mediated inhibition of TNF (TNF) | effect of RU486 on dexamethasone-mediated suppression of TNF secretion (TNF) | effect of RU486 on TSNIIA-SS-mediated inhibition of HMGB1 release (HMGB1; glucocorticoid receptor antagonist co-treatment, data not shown) | effect on LPS-mediated TNF secretion (TNF; concentrations up to 10 μM) | effect on LPS-induced HMGB1 release (HMGB1; concentrations up to 10 μM, FIG. 5B)
1 | CC#C[C@]1(O)CC[C@H]2[C@@H]3CCC4=CC(=O)CCC4=C3[C@@H](c3ccc(N(C)C)cc3)C[C@@]21C [RU486] | did not affect | almost completely abrogated | did not affect |  | 
2 | C[C@@H]1C[C@H]2[C@@H]3CCC4=CC(=O)C=C[C@]4(C)[C@@]3(F)[C@@H](O)C[C@]2(C)[C@@]1(O)C(=O)CO [dexamethasone] |  |  |  | effectively attenuated | failed to reduce
